From publication PMC3285579
No constants are given. Whether binding was seen depends on the method and setting. For some assays here: Binding can be weak; no strength is given. For some assays here: In cells and extracts the contact can be indirect. For some assays here: Sequences can lack the tags named with a protein.

B1: His-6::VAB-1 (581 aa-1117 aa) (domain or fragment, UniProt O61460 581-1117)
chain: QKKSKNRKQMSDLDVLDTYKQDSMTPDYHTTSRHHHHQGNLPATLHEQLRSTTKLNAPLIPSFGSPISQPPPYYGGVHPNSGKYKTYVDPTTYEDPYQALIEFTFDISPNDVFITQVIGGGEFGDVCLGGLSKNSPAAAKWSVSNTTMGRGGGGGGYESEPYETVAIKTLKSGSSAKAKAEFLTEATIMGQFSHPNVIRLIGVVTSAEPVMIVAEYMANGSLDQFLRNTDQRGEKVHWEKITEMLYGIASGMKYLTDMGYVHRDLAARNVLLDMELRCKIADFGLSRGVRSEGSSVEPEYTTNGGKIPVRWTAPEAITHRKFTPSSDVWSFGVVIWEVCSFGERPYWDWTNQKVISEVMIGYRLPPPMDCPMGLYRIAQWCWKMERHERPTFTQLLATFHKYILQPTLIEHDPGELPRRVQSQSALNTYGSVNVGVVPTPPSSAAPMPSLDDFLRQIGLNHVYGQLVSNNIHSVSDLANTSHLDLLAYGLMSAECSTVRDGLNGRISGSPPGSSGTIHATTRGTRTTRPPREEGFFV

Legend:
[1] = target: T1, VAB-1 kinase region (669 aa-985 aa), wild type, two-hybrid bait (C. elegans) (UniProt O61460); experiment: two-hybrid; directed assays: pGBKT7 bait, pGADT7 prey; beta-galactosidase activity measured qualitatively by X-GAL overlay
T1 sequence: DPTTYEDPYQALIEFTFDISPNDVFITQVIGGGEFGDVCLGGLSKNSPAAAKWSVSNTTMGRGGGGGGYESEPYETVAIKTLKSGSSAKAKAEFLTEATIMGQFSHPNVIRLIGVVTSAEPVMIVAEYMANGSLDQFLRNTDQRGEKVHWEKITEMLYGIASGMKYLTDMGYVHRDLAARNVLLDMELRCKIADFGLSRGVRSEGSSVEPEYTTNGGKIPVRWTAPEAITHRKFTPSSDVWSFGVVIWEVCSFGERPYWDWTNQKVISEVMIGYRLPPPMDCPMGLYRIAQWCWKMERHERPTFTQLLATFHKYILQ

[2] = target: T2, VAB-1 kinase region (669 aa-985 aa) Y673E, two-hybrid bait (C. elegans) (UniProt O61460); experiment: as above
T2 sequence: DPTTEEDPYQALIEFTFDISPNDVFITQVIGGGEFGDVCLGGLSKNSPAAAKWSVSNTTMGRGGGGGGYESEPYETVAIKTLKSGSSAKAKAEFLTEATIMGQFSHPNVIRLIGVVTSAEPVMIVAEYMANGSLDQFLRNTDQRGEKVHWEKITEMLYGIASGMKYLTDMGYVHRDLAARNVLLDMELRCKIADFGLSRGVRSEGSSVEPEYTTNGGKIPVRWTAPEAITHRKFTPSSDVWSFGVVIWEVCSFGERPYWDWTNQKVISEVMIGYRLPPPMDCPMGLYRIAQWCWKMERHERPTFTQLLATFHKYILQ

[3] = target: GST-NCK-1 F.L., full length NCK-1 (1 aa-397 aa) (C. elegans); experiment: pull-down; MBP pull-down (Figure 6A): MBP-WSP-1 from soluble extract bound to amylose resin beads; soluble extracts of GST-NCK-1 F.L., His-VAB-1, or GST-NCK-1 F.L. co-expressed with His-VAB-1 as load; 2-3 hours at 4°C; washed four times (20 mM Tris-Cl pH 7.5, 200 mM NaCl, 1 mM EDTA, 1 mM DTT)
[4] = target: GST-NCK-1 F.L., full length NCK-1 (1 aa-397 aa) (C. elegans); experiment: pull-down; same experiment as a5 (Figure 5A), pair His-VAB-1 with GST-NCK-1: His-VAB-1 from soluble extract or co-expressed with GST-NCK-1 F.L.; detected with anti-VAB-1

Molecule	binding [1]	binding [2]	binding [3]	binding [4]
MIG-10 SH2 domain, two-hybrid prey (C. elegans) (domain or fragment)	no binding			
NCK-1 SH2 domain, two-hybrid prey (C. elegans) (domain or fragment)	binds	no binding		
B1			binds	binds
